Assay results taken from patent publication US20140206624A1, “TREATMENT OF LEUKEMIA” (THE BRIGHAM AND WOMEN'S HOSPITAL, INC., priority 2011, published 2014).
Entries after “also recorded” stand apart in the source; their conditions may differ. At least one structure is not confirmed: it was looked up by name or label, or the drawing left a doubt.

Assays:
MOLM-14 cells [1] = test: CD11b expression by flow cytometry; format: cell-based, human; details: 10 μM SP600125, 48 h
[2] = tested on: MLL-AF9-expressing leukemia BM cells; test: Annexin V staining (apoptosis); format: cell-based, mouse; details: 10 μM SP600125, 48 h
[3] = tested on: MLL-AF9-expressing leukemia BM cells; test: Cell morphology staining (Giemsa); format: cell-based, mouse; details: SP600125 combined with myrAKT
SKM-1 cells [4] = test: Annexin V staining (apoptosis); format: cell-based, human; details: 10 μM SP600125, 48 h
[5] = tested on: MLL-AF9-expressing leukemia BM cells; test: Cell number after SP600125 treatment; format: cell-based, mouse; details: 10 μM SP600125, 48 h
SKM-1 = test: Cell growth after SP600125 treatment; format: cell-based, human; details: control infected
SKM-1 cells [6] = test: CD11b expression by flow cytometry; format: cell-based, human; details: 10 μM SP600125, 48 h
[7] = tested on: MLL-AF9-expressing leukemia BM cells; test: CD11b and Gr-1 expression by flow cytometry; format: cell-based, mouse; details: 10 μM SP600125, 48 h
MOLM-14 cells [8] = test: Annexin V staining (apoptosis); format: cell-based, human; details: 10 μM SP600125, 48 h
MOLM-14 cells [9] = test: Cell number after SP600125 treatment; format: cell-based, human; details: 10 μM SP600125, 48 h
[10] = tested on: bone marrow cells derived from MLL-AF9-induced leukemic mouse; test: Growth of control vs myrAKT-infected cells (GFP by flow cytometry); format: cell-based; details: rapamycin 10 nM or 100 nM
[11] = combined with FOXO3 shRNA (F3-1)
[12] = combined with myrAKT expression

Compound | mature myeloid surface marker expression (CD11b) (MOLM-14 cells [1]; [11]) | mature myeloid surface marker expression (CD11b) (MOLM-14 cells [1]; control (NT shRNA)) | apoptosis [2, 12] | apoptosis ([2]; control infected) | morphological changes (myeloid differentiation) [3] | apoptosis (SKM-1 cells [4]; [11]) | apoptosis (SKM-1 cells [4]; control (NT shRNA)) | cell growth [5, 12] | cell growth ([5]; control infected) | cell growth (SKM-1) | mature myeloid surface marker expression (CD11b) (SKM-1 cells [6]; [11]) | mature myeloid surface marker expression (CD11b) (SKM-1 cells [6]; control (NT shRNA)) | mature myeloid surface marker expression (CD11b and Gr-1) [7, 12] | mature myeloid surface marker expression (CD11b and Gr-1) ([7]; control infected) | apoptosis (MOLM-14 cells [8]; [11]) | apoptosis (MOLM-14 cells [8]; control (NT shRNA)) | cell growth (MOLM-14 cells [9]; [11]) | cell growth (MOLM-14 cells [9]; control (NT shRNA) infected) | rescue of cell growth defect of myrAKT-expressing AML cells [10]
Oc1c2ccccc2c2c3c(cccc13)N=N2 [SP600125] | increased expression of mature myeloid surface marker; also recorded: above that of FOXO3 inhibition or SP600125 treatment alone | mild increase | significantly increased apoptosis | mild increase | morphological changes associated with greater degree of myeloid differentiation compared to each alone | increased apoptosis | mild increase | significantly reduced cell growth; also recorded: significant decrease in cell growth compared to FOXO inhibition or SP600125 treatment alone | modest but significant decrease | modest but significant decrease | increased expression of mature myeloid surface marker; also recorded: above that of FOXO3 inhibition or SP600125 treatment alone | mild increase | increased expression of mature myeloid surface marker; also recorded: above that of FOXO3 inhibition or SP600125 treatment alone | mild increase | significantly increases apoptosis; also recorded: increased apoptosis | mild increase | significantly reduced AML cell growth; also recorded: significant decrease in cell growth compared to FOXO inhibition or SP600125 treatment alone | modest but significant decrease | –
CO[C@H]1C[C@@H]2CC[C@@H](C)[C@@](O)(O2)C(=O)C(=O)N2CCCC[C@H]2C(=O)O[C@H]([C@H](C)C[C@@H]2CC[C@@H](O)[C@H](OC)C2)CC(=O)[C@H](C)/C=C(\C)[C@@H](O)[C@@H](OC)C(=O)[C@H](C)C[C@H](C)/C=C/C=C/C=C/1C [rapamycin] | – | – | – | – | – | – | – | – | – | – | – | – | – | – | – | – | – | – | did not completely rescue the cell growth defect
